For part of these data: A weaker result is weaker than the reference pair of the same experiment. For part of these data: Where a protein sequence is shown, tags need not be part of it. For part of these data: For at least one entry, the source does not settle the construct or the ends of the probe. For part of these data: At least one result comes from cells or an extract, where the contact may be indirect.

Amino acid sequences for entries named in this document (tags omitted). Residues count along the entry.
UniProt P15391, 20-556: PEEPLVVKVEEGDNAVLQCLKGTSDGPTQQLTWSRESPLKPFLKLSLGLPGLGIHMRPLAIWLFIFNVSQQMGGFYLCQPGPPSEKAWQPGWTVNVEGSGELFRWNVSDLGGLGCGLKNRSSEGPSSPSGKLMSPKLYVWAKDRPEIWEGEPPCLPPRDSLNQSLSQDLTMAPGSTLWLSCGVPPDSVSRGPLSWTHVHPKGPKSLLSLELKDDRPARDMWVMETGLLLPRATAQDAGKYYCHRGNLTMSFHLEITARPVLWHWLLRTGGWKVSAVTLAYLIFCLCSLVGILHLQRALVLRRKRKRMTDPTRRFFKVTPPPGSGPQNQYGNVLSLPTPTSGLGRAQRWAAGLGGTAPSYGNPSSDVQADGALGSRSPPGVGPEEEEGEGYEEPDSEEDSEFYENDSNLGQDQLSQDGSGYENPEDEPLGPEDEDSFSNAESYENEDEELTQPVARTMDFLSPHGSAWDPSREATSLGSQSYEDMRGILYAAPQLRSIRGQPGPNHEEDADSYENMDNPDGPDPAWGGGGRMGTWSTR

One data set addresses T1, Ovalbumin (OVA) (UniProt P01012).
T1 sequence (looked up, limits assumed): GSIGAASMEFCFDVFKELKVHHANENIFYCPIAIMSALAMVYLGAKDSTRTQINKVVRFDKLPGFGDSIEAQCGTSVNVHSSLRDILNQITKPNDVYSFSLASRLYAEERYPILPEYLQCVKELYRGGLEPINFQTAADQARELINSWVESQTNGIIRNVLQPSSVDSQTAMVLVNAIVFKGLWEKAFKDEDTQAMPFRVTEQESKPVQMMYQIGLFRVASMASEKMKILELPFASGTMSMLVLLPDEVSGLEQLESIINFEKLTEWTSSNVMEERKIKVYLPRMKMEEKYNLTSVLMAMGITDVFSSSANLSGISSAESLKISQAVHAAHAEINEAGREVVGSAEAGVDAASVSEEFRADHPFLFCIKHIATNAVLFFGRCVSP
The data set is described as follows: flow cytometry on protein-coated beads. To be noted: PBS, 37 C, 30 min, three PBS washes; bead flow cytometry, random ssDNA pool as background; pH not stated; commercial protein; single-stranded DNA.

In the next data set the target is CD19 on Raji cells (UniProt P15391). The data set is described as follows: flow cytometry and confocal microscopy on cells. The following applies: Raji cells, CD19-negative Jurkat and NB4 weak; PBS, 37 C, 30 min, three PBS washes; bead flow cytometry, random ssDNA pool as background; pH not stated; protein on the cell surface; single-stranded DNA.
Another data set has as its target CD19 on Ramos cells (UniProt P15391). The data set is described as follows: flow cytometry and confocal microscopy on cells. The following applies: Ramos cells, CD19-negative Jurkat and NB4 weak; PBS, 37 C, 30 min, three PBS washes; bead flow cytometry, random ssDNA pool as background; pH not stated; protein on the cell surface; single-stranded DNA.

For “TGCGTGTGTAGTGTGTCTGTTCTCCTTTTTTTGGTTGCTGCTCTTAGGGATTTGGGCGG [LC1]”, the binding result with Ovalbumin (OVA) is “binds more weakly”; with CD19 on Raji cells, “binds”; with CD19 on Ramos cells, “binds”.

The values are drawn from PMC6003574, “Selection of a novel CD19 aptamer for targeted delivery of doxorubicin to lymphoma cells”.
